Legend:
[1] = tested on: breast cancer samples vs. panel of normal tissues; test: Label-free LC-MS quantitation of HLA-presented peptides (presentation profile, over-presentation score); design: species or system human; key: very highly over-presented on tumors compared to a panel of normal tissues (+++); highly over-presented on tumors compared to a panel of normal tissues (++); over-presented on tumors compared to a panel of normal tissues (+); conditions: breast cancer tumors compared to a panel of normal tissues
[2] = tested on: tumor samples of other cancer types; test: LC-MS detection of the HLA-presented peptide on samples of other tumor types (FIGS. 1A-1D); design: species or system human
[3] = gallbladder and bile duct cancers

ALAGSSPQV (listed as Homo sapiens) [SEQ ID NO: 2, HLA-A*02 peptide, source gene CNTD2]
Peptide Presentation (presentation score) [1]: +++

ALEEQLHQV (listed as Homo sapiens) [SEQ ID NO: 19, HLA-A*02 peptide, source genes KRT25, KRT28, KRT27]
Peptide Presentation (presentation score) [1]: +++

ALNPVIYTV (listed as Homo sapiens) [SEQ ID NO: 5, HLA-A*02 peptide, source gene DRD4]
Peptide Presentation (presentation score) [1]: +++

ALTALQNYL (listed as Homo sapiens) [SEQ ID NO: 6, HLA-A*02 peptide, source gene TFAP2B]
Peptide Presentation (presentation score) [1]: +++

FIIPTVATA (listed as Homo sapiens) [SEQ ID NO: 7, HLA-A*02 peptide, source gene ABCC11]
Peptide Presentation (presentation score) [1]: +++

FLDEEVKLI (listed as Homo sapiens) [SEQ ID NO: 43, HLA-A*02 peptide, source gene FTL]
Peptide Presentation (presentation score) [1]: +

FLSSEAANV (listed as Homo sapiens) [SEQ ID NO: 30, HLA-A*02 peptide, source gene TNFAIP2]
Peptide Presentation (presentation score) [1]: +++

FMSKLVPAI (listed as Homo sapiens) [SEQ ID NO: 9, HLA-A*02 peptide, source gene TPRG1]
Peptide Presentation (presentation score) [1]: +++

FSFPVSVGV (listed as Homo sapiens) [SEQ ID NO: 20, HLA-A*02 peptide, source gene DUSP4]
peptide additionally detected on tumor samples (positive/measured) [2, 3]: 2/6
peptide additionally detected on tumor samples (positive/measured) ([2]; gastric cancers): 7/47
peptide additionally detected on tumor samples (positive/measured) ([2]; melanomas): 8/12
peptide additionally detected on tumor samples (positive/measured) ([2]; non-Hodgkin lymphomas): 10/20
peptide additionally detected on tumor samples (positive/measured) ([2]; non-small cell lung cancers): 23/89
peptide additionally detected on tumor samples (positive/measured) ([2]; ovarian cancers): 2/20
peptide additionally detected on tumor samples (positive/measured) ([2]; pancreatic cancers): 2/19
peptide additionally detected on tumor samples (positive/measured) ([2]; renal cell cancers): 2/18
peptide additionally detected on tumor samples (positive/measured) ([2]; small cell lung cancers): 2/17
peptide additionally detected on tumor samples (positive/measured) ([2]; urinary bladder cancers): 6/15
peptide additionally detected on tumor samples (positive/measured) ([2]; uterine cancers): 2/15

GLHSLPPEV (listed as Homo sapiens) [SEQ ID NO: 10, HLA-A*02 peptide, source gene LRRC8E]
Peptide Presentation (presentation score) [1]: +++

GLLGFQAEA (listed as Homo sapiens) [SEQ ID NO: 24, HLA-A*02 peptide, source gene MAGED1]
peptide additionally detected on tumor samples (positive/measured) ([2]; acute myeloid leukemias): 4/21
peptide additionally detected on tumor samples (positive/measured) ([2]; brain cancers): 6/31
peptide additionally detected on tumor samples (positive/measured) ([2]; chronic lymphocytic leukemias): 1/17
peptide additionally detected on tumor samples (positive/measured) ([2]; colorectal cancers): 2/27
peptide additionally detected on tumor samples (positive/measured) ([2]; esophageal cancers): 3/18
peptide additionally detected on tumor samples (positive/measured) [2, 3]: 1/6
peptide additionally detected on tumor samples (positive/measured) ([2]; gastric cancers): 3/47
peptide additionally detected on tumor samples (positive/measured) ([2]; hepatocellular cancers): 3/18
peptide additionally detected on tumor samples (positive/measured) ([2]; melanomas): 3/12
peptide additionally detected on tumor samples (positive/measured) ([2]; non-Hodgkin lymphomas): 6/20
peptide additionally detected on tumor samples (positive/measured) ([2]; non-small cell lung cancers): 12/89
peptide additionally detected on tumor samples (positive/measured) ([2]; ovarian cancers): 7/20
peptide additionally detected on tumor samples (positive/measured) ([2]; pancreatic cancers): 1/19
peptide additionally detected on tumor samples (positive/measured) ([2]; prostate cancers): 2/48
peptide additionally detected on tumor samples (positive/measured) ([2]; renal cell cancers): 2/18
peptide additionally detected on tumor samples (positive/measured) ([2]; uterine cancers): 3/15

GLLPTSVSPRV (listed as Homo sapiens) [SEQ ID NO: 11, HLA-A*02 peptide, source gene SCUBE2]
Peptide Presentation (presentation score) [1]: +++

GLSYIYNTV (listed as Homo sapiens) [SEQ ID NO: 31, HLA-A*02 peptide, source gene COG6]
Peptide Presentation (presentation score) [1]: ++

GLVATLQSL (listed as Homo sapiens) [SEQ ID NO: 32, HLA-A*02 peptide, source gene IFI6]
Peptide Presentation (presentation score) [1]: ++

GLVQSLTSI (listed as Homo sapiens) [SEQ ID NO: 8, HLA-A*02 peptide, source gene ABCC11]
Peptide Presentation (presentation score) [1]: +++

ILLPPAHNJQ (ILLPPAHNSQ; phospho-serine; listed as Homo sapiens) [SEQ ID NO: 3, HLA-A*02 peptide, source gene HEATR5B; J = phospho-serine]
Peptide Presentation (presentation score) [1]: +++

ILTELPPGV (listed as Homo sapiens) [SEQ ID NO: 33, HLA-A*02 peptide, source gene ZNF407]
Peptide Presentation (presentation score) [1]: +++

KAFPFYNTV (listed as Homo sapiens) [SEQ ID NO: 12, HLA-A*02 peptide, source gene NAIP]
Peptide Presentation (presentation score) [1]: +++

KLLDMELEM (listed as Homo sapiens) [SEQ ID NO: 39, HLA-A*02 peptide, source gene FAH]
Peptide Presentation (presentation score) [1]: ++

KLYEGIPVL (listed as Homo sapiens) [SEQ ID NO: 13, HLA-A*02 peptide, source gene NEK10]
Peptide Presentation (presentation score) [1]: +++

KMPEHISTV (listed as Homo sapiens) [SEQ ID NO: 1, HLA-A*02 peptide, source gene CILP]
peptide additionally detected on tumor samples (positive/measured) ([2]; non-small cell lung cancers): 2/89
peptide additionally detected on tumor samples (positive/measured) ([2]; pancreatic cancers): 1/19
Peptide Presentation (presentation score) [1]: +++

KQLELELEV (listed as Homo sapiens) [SEQ ID NO: 14, HLA-A*02 peptide, source gene MUC6]
Peptide Presentation (presentation score) [1]: +++

LLMUVAGLKL (LLMTVAGLKL; phospho-threonine; listed as Homo sapiens) [SEQ ID NO: 38, HLA-A*02 peptide, source gene PCNXL3; U = phospho-threonine]
Peptide Presentation (presentation score) [1]: +++

SAAFPGASL (listed as Homo sapiens) [SEQ ID NO: 40, HLA-A*02 peptide, source gene DAZAP2]
Peptide Presentation (presentation score) [1]: ++

SAFPEVRSL (listed as Homo sapiens) [SEQ ID NO: 34, HLA-A*02 peptide, source gene THADA]
Peptide Presentation (presentation score) [1]: +

SLADAVEKV (listed as Homo sapiens) [SEQ ID NO: 23, HLA-A*02 peptide, source gene CCDC122]
Peptide Presentation (presentation score) [1]: ++

SLAEPRVSV (listed as Homo sapiens) [SEQ ID NO: 27, HLA-A*02 peptide, source gene FASN]
Peptide Presentation (presentation score) [1]: +

SLAWDVPAA (listed as Homo sapiens) [SEQ ID NO: 26, HLA-A*02 peptide, source gene FASN]
Peptide Presentation (presentation score) [1]: ++

SLFPSLVVV (listed as Homo sapiens) [SEQ ID NO: 15, HLA-A*02 peptide, source gene PLEC]
Peptide Presentation (presentation score) [1]: +++

SLLSEIQAL (listed as Homo sapiens) [SEQ ID NO: 35, HLA-A*02 peptide, source genes AKAP9, PCNT]
Peptide Presentation (presentation score) [1]: ++

SLLTEPALV (listed as Homo sapiens) [SEQ ID NO: 21, HLA-A*02 peptide, source gene TBC1D9]
Peptide Presentation (presentation score) [1]: ++

SLVEGEAVHLA (listed as Homo sapiens) [SEQ ID NO: 4, HLA-A*02 peptide, source genes TFAP2E, TFAP2A, TFAP2B, TFAP2C]
peptide additionally detected on tumor samples (positive/measured) ([2]; esophageal cancers): 1/18
peptide additionally detected on tumor samples (positive/measured) [2, 3]: 1/6
peptide additionally detected on tumor samples (positive/measured) ([2]; non-small cell lung cancers): 1/89
peptide additionally detected on tumor samples (positive/measured) ([2]; ovarian cancers): 1/20
Peptide Presentation (presentation score) [1]: +++

SMMGLLTNL (listed as Homo sapiens) [SEQ ID NO: 16, HLA-A*02 peptide, source gene ESR1]
Peptide Presentation (presentation score) [1]: +++

TIASSIEKA (listed as Homo sapiens) [SEQ ID NO: 17, HLA-A*02 peptide, source gene STPG2]
Peptide Presentation (presentation score) [1]: +++

TLLGLAVNV (listed as Homo sapiens) [SEQ ID NO: 36, HLA-A*02 peptide, source gene CHPT1]
Peptide Presentation (presentation score) [1]: ++

VLAHITADI (listed as Homo sapiens) [SEQ ID NO: 37, HLA-A*02 peptide, source gene KDM5B]
Peptide Presentation (presentation score) [1]: +++

YIDGLESRV (listed as Homo sapiens) [SEQ ID NO: 22, HLA-A*02 peptide, source gene CREB3L4]
Peptide Presentation (presentation score) [1]: ++

YILLQSPQL (listed as Homo sapiens) [SEQ ID NO: 18, HLA-A*02 peptide, source gene MUC6]
Peptide Presentation (presentation score) [1]: +++

From patent publication US11065314B2, “Peptides and combination of peptides for use in immunotherapy against breast cancer and other cancers” (Immatics Biotechnologies GmbH, priority 2015, dated 2021)
